# Reference: the supplement of paper PMC10060354, “Discovery of a small molecule ligand of FRS2 that inhibits invasion and tumor growth” (Cellular Oncology, 2022)
# Protein sequences, listed by entry. Tags and fused reporters are not part of them. Lines headed by an entry give the natural chain unless they say otherwise; changes in a name come on top.
# UniProt Q92522: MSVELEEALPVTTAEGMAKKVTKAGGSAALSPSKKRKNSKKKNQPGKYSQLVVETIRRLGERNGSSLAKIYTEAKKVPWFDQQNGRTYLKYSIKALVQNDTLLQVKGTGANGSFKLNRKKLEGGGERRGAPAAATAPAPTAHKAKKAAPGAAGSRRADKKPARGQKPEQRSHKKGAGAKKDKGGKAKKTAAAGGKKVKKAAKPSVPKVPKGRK
# UniProt Q7Z4H3: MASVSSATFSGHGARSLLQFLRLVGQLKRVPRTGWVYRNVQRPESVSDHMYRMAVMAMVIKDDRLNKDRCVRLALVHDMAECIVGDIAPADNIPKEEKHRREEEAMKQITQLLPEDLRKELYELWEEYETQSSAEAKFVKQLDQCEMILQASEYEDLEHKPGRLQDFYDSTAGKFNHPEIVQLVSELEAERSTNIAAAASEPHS
# UniProt Q9NV31: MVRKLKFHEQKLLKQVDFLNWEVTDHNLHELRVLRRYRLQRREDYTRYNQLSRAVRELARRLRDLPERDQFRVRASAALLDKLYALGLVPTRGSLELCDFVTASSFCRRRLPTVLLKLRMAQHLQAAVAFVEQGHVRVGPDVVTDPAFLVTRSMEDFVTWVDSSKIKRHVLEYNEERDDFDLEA
# UniProt Q9BYW2: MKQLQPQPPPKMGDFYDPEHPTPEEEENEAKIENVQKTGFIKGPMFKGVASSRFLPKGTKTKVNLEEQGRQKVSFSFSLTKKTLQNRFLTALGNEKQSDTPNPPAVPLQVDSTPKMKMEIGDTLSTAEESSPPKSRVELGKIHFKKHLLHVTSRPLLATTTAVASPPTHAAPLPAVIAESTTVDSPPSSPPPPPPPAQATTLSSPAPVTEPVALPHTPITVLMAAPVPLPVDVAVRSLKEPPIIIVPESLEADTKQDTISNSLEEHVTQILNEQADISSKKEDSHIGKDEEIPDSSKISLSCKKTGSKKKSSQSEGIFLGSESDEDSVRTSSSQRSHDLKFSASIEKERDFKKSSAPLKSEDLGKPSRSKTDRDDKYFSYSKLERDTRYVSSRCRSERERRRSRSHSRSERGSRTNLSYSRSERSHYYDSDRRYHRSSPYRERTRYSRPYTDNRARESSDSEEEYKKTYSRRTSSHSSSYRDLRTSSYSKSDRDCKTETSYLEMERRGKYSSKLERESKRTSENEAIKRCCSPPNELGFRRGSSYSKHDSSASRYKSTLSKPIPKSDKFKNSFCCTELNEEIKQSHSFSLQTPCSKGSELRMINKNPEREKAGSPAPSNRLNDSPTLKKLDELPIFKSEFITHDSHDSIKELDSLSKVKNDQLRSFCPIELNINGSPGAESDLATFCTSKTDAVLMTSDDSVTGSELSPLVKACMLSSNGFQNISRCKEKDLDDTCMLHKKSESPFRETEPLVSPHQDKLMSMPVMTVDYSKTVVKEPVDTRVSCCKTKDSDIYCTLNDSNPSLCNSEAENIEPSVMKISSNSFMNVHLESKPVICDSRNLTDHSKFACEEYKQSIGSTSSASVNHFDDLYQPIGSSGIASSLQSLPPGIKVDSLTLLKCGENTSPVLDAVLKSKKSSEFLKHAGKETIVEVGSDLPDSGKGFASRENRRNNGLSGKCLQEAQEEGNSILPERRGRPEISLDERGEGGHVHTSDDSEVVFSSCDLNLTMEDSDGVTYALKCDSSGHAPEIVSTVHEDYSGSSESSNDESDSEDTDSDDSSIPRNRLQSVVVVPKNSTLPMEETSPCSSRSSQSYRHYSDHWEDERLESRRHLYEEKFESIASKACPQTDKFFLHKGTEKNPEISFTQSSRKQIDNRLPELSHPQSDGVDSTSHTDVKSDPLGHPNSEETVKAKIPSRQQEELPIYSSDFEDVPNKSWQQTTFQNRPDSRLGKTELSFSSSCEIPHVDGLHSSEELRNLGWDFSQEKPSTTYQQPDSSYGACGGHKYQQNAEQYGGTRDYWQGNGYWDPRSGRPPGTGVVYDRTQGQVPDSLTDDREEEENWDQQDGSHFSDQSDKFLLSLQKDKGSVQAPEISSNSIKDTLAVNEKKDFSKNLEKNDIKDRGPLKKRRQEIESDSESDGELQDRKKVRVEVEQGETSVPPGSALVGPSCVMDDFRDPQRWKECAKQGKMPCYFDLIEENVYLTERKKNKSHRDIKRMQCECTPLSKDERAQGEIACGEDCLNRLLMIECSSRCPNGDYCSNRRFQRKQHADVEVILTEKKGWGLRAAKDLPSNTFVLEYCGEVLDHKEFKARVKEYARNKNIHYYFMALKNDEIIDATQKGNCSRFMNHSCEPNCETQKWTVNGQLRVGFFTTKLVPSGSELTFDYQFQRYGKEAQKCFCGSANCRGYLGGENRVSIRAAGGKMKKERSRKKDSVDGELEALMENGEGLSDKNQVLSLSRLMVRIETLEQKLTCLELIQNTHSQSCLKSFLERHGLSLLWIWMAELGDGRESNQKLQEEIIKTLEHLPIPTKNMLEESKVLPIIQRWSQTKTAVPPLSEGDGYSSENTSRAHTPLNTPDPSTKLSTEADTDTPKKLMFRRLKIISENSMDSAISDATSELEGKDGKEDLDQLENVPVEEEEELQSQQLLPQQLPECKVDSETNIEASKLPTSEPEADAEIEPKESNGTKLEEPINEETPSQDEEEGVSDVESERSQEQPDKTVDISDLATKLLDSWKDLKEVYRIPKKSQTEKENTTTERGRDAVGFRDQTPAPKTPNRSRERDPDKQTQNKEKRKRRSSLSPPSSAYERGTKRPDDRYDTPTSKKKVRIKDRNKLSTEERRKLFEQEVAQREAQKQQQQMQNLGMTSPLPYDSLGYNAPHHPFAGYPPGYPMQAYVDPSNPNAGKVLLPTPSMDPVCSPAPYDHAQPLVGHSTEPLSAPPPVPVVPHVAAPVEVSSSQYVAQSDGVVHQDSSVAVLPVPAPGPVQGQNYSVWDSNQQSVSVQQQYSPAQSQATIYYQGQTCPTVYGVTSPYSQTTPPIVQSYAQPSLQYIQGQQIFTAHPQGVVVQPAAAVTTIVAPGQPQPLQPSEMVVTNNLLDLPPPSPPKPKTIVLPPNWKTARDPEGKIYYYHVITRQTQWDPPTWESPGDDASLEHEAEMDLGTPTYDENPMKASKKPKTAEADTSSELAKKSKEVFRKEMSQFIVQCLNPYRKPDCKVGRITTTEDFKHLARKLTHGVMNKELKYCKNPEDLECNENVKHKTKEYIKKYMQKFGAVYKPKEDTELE
# UniProt O43678, whole entry: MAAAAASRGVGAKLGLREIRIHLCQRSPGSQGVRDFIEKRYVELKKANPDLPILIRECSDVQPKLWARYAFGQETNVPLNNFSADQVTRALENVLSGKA
# UniProt Q6PI26: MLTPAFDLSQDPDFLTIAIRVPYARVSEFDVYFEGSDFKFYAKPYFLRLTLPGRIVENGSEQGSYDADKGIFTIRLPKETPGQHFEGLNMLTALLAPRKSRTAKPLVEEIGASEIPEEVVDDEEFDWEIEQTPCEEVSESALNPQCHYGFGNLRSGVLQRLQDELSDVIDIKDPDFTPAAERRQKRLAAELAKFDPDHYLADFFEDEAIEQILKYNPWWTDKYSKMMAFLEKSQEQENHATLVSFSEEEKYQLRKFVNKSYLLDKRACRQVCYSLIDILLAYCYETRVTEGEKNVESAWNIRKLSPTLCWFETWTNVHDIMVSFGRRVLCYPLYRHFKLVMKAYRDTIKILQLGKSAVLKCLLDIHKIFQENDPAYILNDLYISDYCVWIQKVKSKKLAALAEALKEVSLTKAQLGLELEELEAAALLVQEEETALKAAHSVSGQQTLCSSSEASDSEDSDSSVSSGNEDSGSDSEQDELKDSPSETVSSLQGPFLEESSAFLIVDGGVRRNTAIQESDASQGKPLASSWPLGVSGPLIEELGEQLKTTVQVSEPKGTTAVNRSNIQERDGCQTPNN
# UniProt Q92917: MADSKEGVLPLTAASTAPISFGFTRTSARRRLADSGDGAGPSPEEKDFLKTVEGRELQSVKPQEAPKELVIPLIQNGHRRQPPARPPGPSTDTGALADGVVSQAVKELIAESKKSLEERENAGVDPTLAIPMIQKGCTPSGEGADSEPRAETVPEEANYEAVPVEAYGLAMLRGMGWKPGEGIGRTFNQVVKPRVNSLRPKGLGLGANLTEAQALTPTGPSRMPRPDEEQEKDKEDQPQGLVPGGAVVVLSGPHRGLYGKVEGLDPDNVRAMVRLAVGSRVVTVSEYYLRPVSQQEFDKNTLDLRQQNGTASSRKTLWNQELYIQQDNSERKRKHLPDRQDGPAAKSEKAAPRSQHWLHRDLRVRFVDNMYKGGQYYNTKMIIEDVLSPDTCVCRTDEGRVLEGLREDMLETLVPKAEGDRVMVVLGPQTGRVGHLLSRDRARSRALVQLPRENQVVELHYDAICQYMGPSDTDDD
# UniProt Q9ULK4: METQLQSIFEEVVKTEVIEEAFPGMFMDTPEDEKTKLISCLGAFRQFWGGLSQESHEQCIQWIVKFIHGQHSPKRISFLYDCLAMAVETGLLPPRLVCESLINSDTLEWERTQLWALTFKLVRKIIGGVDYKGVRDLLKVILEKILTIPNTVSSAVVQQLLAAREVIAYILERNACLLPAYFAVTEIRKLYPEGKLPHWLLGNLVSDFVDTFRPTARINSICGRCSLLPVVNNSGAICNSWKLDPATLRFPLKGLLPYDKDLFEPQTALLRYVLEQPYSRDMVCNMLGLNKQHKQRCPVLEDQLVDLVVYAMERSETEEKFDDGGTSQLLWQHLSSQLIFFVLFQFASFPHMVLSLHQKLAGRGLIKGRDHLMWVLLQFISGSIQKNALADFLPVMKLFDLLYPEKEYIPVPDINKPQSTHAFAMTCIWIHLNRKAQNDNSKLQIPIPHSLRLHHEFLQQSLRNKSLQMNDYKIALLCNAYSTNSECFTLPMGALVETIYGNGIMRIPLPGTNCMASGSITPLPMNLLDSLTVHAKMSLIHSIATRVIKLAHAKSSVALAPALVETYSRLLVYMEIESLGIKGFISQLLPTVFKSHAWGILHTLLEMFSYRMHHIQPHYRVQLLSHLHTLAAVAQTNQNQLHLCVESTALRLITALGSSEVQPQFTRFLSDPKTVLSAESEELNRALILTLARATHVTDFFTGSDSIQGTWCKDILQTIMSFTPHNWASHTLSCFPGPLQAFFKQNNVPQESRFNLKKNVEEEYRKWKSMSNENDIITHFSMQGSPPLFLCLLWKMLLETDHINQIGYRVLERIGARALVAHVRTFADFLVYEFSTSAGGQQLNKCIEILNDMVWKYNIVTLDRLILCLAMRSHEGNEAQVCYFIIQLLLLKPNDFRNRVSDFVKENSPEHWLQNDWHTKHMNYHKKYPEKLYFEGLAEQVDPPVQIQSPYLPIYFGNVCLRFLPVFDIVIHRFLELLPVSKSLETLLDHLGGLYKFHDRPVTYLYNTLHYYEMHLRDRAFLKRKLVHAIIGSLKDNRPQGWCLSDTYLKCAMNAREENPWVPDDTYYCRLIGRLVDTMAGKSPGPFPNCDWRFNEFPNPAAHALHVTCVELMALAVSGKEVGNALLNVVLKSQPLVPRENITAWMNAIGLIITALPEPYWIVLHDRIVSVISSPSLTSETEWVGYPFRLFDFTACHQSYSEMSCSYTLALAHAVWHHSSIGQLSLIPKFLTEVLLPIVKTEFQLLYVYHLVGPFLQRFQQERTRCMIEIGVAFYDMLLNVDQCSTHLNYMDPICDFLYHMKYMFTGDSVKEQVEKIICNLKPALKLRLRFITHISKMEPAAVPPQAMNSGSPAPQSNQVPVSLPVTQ
# UniProt Q9BYC2: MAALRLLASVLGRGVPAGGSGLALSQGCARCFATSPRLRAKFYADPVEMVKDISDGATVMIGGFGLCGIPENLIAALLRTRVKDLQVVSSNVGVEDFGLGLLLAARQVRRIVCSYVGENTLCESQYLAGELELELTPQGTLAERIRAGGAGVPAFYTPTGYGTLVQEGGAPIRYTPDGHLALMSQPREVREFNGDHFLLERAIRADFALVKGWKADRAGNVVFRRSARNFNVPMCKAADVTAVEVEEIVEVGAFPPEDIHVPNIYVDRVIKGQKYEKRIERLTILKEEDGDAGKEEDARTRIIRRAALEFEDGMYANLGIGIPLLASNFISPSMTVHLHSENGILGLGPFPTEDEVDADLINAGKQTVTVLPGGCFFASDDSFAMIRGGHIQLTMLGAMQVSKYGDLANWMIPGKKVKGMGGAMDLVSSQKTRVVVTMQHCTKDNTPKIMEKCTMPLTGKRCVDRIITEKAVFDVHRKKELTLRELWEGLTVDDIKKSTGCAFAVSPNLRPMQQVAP
# UniProt Q9H2U2: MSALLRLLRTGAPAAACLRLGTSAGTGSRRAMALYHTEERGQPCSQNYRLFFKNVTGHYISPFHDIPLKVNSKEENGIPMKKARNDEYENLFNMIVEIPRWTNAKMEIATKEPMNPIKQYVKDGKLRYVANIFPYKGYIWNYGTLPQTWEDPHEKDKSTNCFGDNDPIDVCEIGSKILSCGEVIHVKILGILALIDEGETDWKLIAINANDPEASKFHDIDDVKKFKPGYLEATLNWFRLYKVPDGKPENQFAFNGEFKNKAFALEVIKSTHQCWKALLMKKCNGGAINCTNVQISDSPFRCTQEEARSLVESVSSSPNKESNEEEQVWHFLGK
# UniProt P56381: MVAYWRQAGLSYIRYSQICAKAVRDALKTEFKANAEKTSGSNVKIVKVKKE
# Compound: [O-][N+](C(C1=C(C(O)=C2)NC(C(C=C3)=CC=C3Cl)C4C1C=CC4)=C2Cl)=O
# Test: melting temperature shift (compound 7 minus DMSO); higher = compound stabilises the protein
# Settings: 10 µM
# Method: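 Thermal proteome profiling (TMT mass spectrometry) in intact DAOY medulloblastoma cells or DAOY lysates treated with 10 µM compound 7 or DMSO, heated at 10 temperatures from 40.5 to 73.8 °C for 3 min. Melting curves were fitted with the Bioconductor TPP package, and the melting point difference between compound and vehicle is reported per protein (single curve per condition).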
# [1] = system: DAOY cell lysate, treatment time: 20 min, 4 °C
# [2] = system: intact DAOY cells, treatment time: 90 min, 37 °C
target,measurement,setting,value
HACD2 (UniProt Q6Y1H2),melting temperature shift,[1],-0.0468 °C
same,melting temperature shift,[2],-2.06 °C
CPSF3 (UniProt Q9UKF6),melting temperature shift,[1],0.157 °C
same,melting temperature shift,[2],0.308 °C
UniProt Q8WWF6,melting temperature shift,[2],-0.5 °C
H1FX (UniProt Q92522),melting temperature shift,[1],0.852 °C
same,melting temperature shift,[2],0.233 °C
BRCC3 (UniProt P46736),melting temperature shift,[1],-0.595 °C
same,melting temperature shift,[2],-2.54 °C
PSMG1 (UniProt O95456),melting temperature shift,[1],-3.67 °C
same,melting temperature shift,[2],0.746 °C
ATG101 (UniProt Q9BSB4),melting temperature shift,[1],-2.35 °C
HDDC2 (UniProt Q7Z4H3),melting temperature shift,[1],-0.91 °C
same,melting temperature shift,[2],-2.44 °C
FKBP5 (UniProt Q13451),melting temperature shift,[1],-0.436 °C
same,melting temperature shift,[2],-0.1 °C
AK4 (UniProt P27144),melting temperature shift,[1],-0.0989 °C
same,melting temperature shift,[2],-1.38 °C
POFUT1 (UniProt Q9H488),melting temperature shift,[1],-0.222 °C
same,melting temperature shift,[2],0.242 °C
EPB41L2 (UniProt O43491),melting temperature shift,[1],0.918 °C
same,melting temperature shift,[2],-0.263 °C
RPL18A (UniProt Q02543),melting temperature shift,[1],0.622 °C
same,melting temperature shift,[2],-0.447 °C
GMPPA (UniProt Q96IJ6),melting temperature shift,[1],-0.841 °C
same,melting temperature shift,[2],-2.03 °C
IMP3 (UniProt Q9NV31),melting temperature shift,[1],1.34 °C
TPR (UniProt P12270),melting temperature shift,[1],0.00221 °C
same,melting temperature shift,[2],2.01 °C
GPD2 (UniProt P43304),melting temperature shift,[1],3.15 °C
same,melting temperature shift,[2],0.417 °C
LRRC8D (UniProt Q7L1W4),melting temperature shift,[1],0.119 °C
same,melting temperature shift,[2],0.639 °C
GPD1L (UniProt Q8N335),melting temperature shift,[1],-0.205 °C
same,melting temperature shift,[2],1.42 °C
UniProt Q9BYW2,melting temperature shift,[1],-0.434 °C
NDUFA2 (UniProt O43678),melting temperature shift,[1],0.632 °C
same,melting temperature shift,[2],-0.154 °C
SHQ1 (UniProt Q6PI26),melting temperature shift,[1],0.398 °C
same,melting temperature shift,[2],1.67 °C
MBLAC2 (UniProt Q68D91),melting temperature shift,[2],-0.828 °C
BCL3 (UniProt P20749),melting temperature shift,[2],-1.29 °C
PMPCB (UniProt O75439),melting temperature shift,[1],-0.783 °C
same,melting temperature shift,[2],0.658 °C
UniProt Q96L73,melting temperature shift,[2],0.664 °C
UniProt Q7Z3H0,melting temperature shift,[2],-0.362 °C
GPKOW (UniProt Q92917),melting temperature shift,[1],0.013 °C
same,melting temperature shift,[2],-1.98 °C
FBXO28 (UniProt Q9NVF7),melting temperature shift,[1],0.0555 °C
MED23 (UniProt Q9ULK4),melting temperature shift,[1],0.507 °C
same,melting temperature shift,[2],0.387 °C
IMPDH1 (UniProt P20839),melting temperature shift,[1],-0.858 °C
same,melting temperature shift,[2],-1.75 °C
ANAPC1 (UniProt Q9H1A4),melting temperature shift,[1],-0.419 °C
same,melting temperature shift,[2],0.521 °C
UniProt Q07817,melting temperature shift,[1],2.03 °C
same,melting temperature shift,[2],-1.06 °C
UniProt P62837,melting temperature shift,[1],-1.23 °C
same,melting temperature shift,[2],0.323 °C
NUDT15 (UniProt Q9NV35),melting temperature shift,[2],0.748 °C
LRRC8A (UniProt Q8IWT6),melting temperature shift,[1],1.12 °C
same,melting temperature shift,[2],0.467 °C
GABPA (UniProt Q06546),melting temperature shift,[1],-1.19 °C
same,melting temperature shift,[2],-0.678 °C
AKAP8L (UniProt Q9ULX6),melting temperature shift,[1],-0.825 °C
same,melting temperature shift,[2],-0.716 °C
UniProt Q9BYC2,melting temperature shift,[2],0.0355 °C
PPA2 (UniProt Q9H2U2),melting temperature shift,[1],-0.146 °C
same,melting temperature shift,[2],-1.62 °C
PPOX (UniProt P50336),melting temperature shift,[2],0.502 °C
UniProt P35612,melting temperature shift,[1],-0.0999 °C
same,melting temperature shift,[2],0.631 °C
SND1 (UniProt Q7KZF4),melting temperature shift,[1],-0.228 °C
same,melting temperature shift,[2],0.0654 °C
Q95604 (UniProt P10321),melting temperature shift,[1],1.45 °C
same,melting temperature shift,[2],0.492 °C
UniProt P42356,melting temperature shift,[1],-1.66 °C
same,melting temperature shift,[2],1.2 °C
ATP5E (UniProt P56381),melting temperature shift,[1],2.28 °C
same,melting temperature shift,[2],-0.89 °C

# Some of the entries above in a different format:
target	measurement	setting	value
CPSF3 (UniProt Q9UKF6)	melting temperature shift	[2]	0.308 °C
PSMG1 (UniProt O95456)	melting temperature shift	[2]	0.746 °C
HDDC2 (UniProt Q7Z4H3)	melting temperature shift	[2]	-2.44 °C
FKBP5 (UniProt Q13451)	melting temperature shift	[2]	-0.1 °C
AK4 (UniProt P27144)	melting temperature shift	[1]	-0.0989 °C
EPB41L2 (UniProt O43491)	melting temperature shift	[1]	0.918 °C
RPL18A (UniProt Q02543)	melting temperature shift	[2]	-0.447 °C
TPR (UniProt P12270)	melting temperature shift	[2]	2.01 °C
GPD2 (UniProt P43304)	melting temperature shift	[1]	3.15 °C
GPD1L (UniProt Q8N335)	melting temperature shift	[2]	1.42 °C
SHQ1 (UniProt Q6PI26)	melting temperature shift	[1]	0.398 °C
PMPCB (UniProt O75439)	melting temperature shift	[1]	-0.783 °C
GPKOW (UniProt Q92917)	melting temperature shift	[2]	-1.98 °C
FBXO28 (UniProt Q9NVF7)	melting temperature shift	[1]	0.0555 °C
ANAPC1 (UniProt Q9H1A4)	melting temperature shift	[2]	0.521 °C
UniProt Q07817	melting temperature shift	[2]	-1.06 °C
UniProt P62837	melting temperature shift	[1]	-1.23 °C
GABPA (UniProt Q06546)	melting temperature shift	[2]	-0.678 °C
PPA2 (UniProt Q9H2U2)	melting temperature shift	[1]	-0.146 °C
UniProt P35612	melting temperature shift	[2]	0.631 °C
SND1 (UniProt Q7KZF4)	melting temperature shift	[2]	0.0654 °C
Q95604 (UniProt P10321)	melting temperature shift	[1]	1.45 °C
UniProt P42356	melting temperature shift	[2]	1.2 °C

# Single values are uncertain, as repeats are few or missing.
